Patent US20190071513A1 (APTEVO RESEARCH AND DEVELOPMENT, published 2019)
Results are given in words; binding and its absence hold for the method and conditions named. Some results given as binding are weak or reduced against the parent protein; the word gives no strength. Tags and fused reporters may be left off the sequences shown.

Sequences of proteins named here, by UniProt entry; tags and fusion partners are left off. Residues count along the entry.
UniProt Q95LI5, residues 22-198: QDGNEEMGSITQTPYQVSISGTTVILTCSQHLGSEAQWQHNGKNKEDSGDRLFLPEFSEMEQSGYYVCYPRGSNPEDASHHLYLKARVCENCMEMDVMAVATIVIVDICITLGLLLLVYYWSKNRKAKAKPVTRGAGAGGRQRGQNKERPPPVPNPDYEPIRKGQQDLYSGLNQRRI

Biological target: cynomolgus CD3ε on cynomolgus T-cells (cynomolgus monkey) (UniProt Q95LI5)
Experiment: flow cytometry on Chinese cynomolgus macaque T-cells

binding: binds
B1: anti-CD3 scFv-Fc (the anti-CD3 binding domain in a mono-specific scFv-Fc fusion format) (Fc fusion, not shown: a dimerising Fc or GST)
chain: QVQLVQSGPEVKKPGSSVKVSCKASGYTFSRSTMHWVRQAPGQGLEWIGYINPSSAYTNYNQKFKDRVTITADKSTSTAYMELSSLRSEDTAVYYCARPQVHYDYNGFPYWGQGTLVTVSSGGGGSGGGGSGGGGSGGGGSDIQMTQSPSTLSASVGDRVTMTCSASSSVSYMNWYQQKPGKAPKRWIYDSSKLASGVPSRFSGSGSGTDYTLTISSLQPDDFATYYCQQWSRNPPTFGGGTKVEIKRSSS
